PubChem BioAssay AID1259424 – University of Nebraska Medical Center | 2018
Here is an unselected part of about 14,000 reagents. 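Higher correlation or smaller distance means closer resemblance to KSR1 loss; control wells, including KSR1 knockdowns, recur on many plates.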 Reagents against one gene are numbered here. Further read-outs or replicates are left out here. The record does not give: the time to read-out.

Test: 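Rank knockdowns across the genome by resemblance to the KSR1 depletion profile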 (primary screen)
Cell system: human HCT116 colon cancer cells
Reagents: siRNA pool against human genes, 50 nM
Detection: 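Six signature mRNAs by branched-DNA multiplex assay, scaled to two housekeeping genes and non-targeting median, log2; matched to mean KSR1 knockdown profile by Pearson correlation and euclidean distance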
Direction: mean correlation with KSR1 profile: higher = expression change more like KSR1 knockdown; mean distance from KSR1 profile: higher = expression change less like KSR1 knockdown

Target gene,reagent no.,mean correlation with KSR1 profile,mean distance from KSR1 profile
ADTRP (androgen dependent TFPI regulating protein),1,-0.0213,2.88
AK5 (adenylate kinase 5),1,0.124,2.14
SLC5A7,1,0.497,3.17
ZNF83 (zinc finger protein 83),1,0.0562,2.67
RERGL (RERG like),1,0.12,1.78
TET2 (tet methylcytosine dioxygenase 2),1,-0.689,2.79
TET2 (tet methylcytosine dioxygenase 2),2,-0.325,1.82
GRHL1 (grainyhead like transcription factor 1),1,-0.218,2.84
DUS3L (dihydrouridine synthase 3 like),1,-0.529,8.6
FSCN3 (fascin actin-bundling protein 3),1,0.343,1.94
GAMT (guanidinoacetate N-methyltransferase),1,0.459,1.88
TIA1 (TIA1 cytotoxic granule associated RNA binding protein),1,0.0423,3.53
PHLPP2 (PH domain and leucine rich repeat protein phosphatase 2),1,-0.0874,1.09
LRRC8D (leucine rich repeat containing 8 VRAC subunit D),1,0.643,1.2
IL20RA (interleukin 20 receptor subunit alpha),1,-0.57,2.73
HPSE2 (heparanase 2 (inactive)),1,0.203,1.34
FUBP1 (far upstream element binding protein 1),1,0.205,2.17
GALR1 (galanin receptor 1),1,0.283,1.67
BRD4 (bromodomain containing 4),1,-0.42,1.45

Next part, starting with the last 4 of the part before.
Target gene,reagent no.,mean correlation with KSR1 profile,mean distance from KSR1 profile
HPSE2 (heparanase 2 (inactive)),1,0.203,1.34
FUBP1 (far upstream element binding protein 1),1,0.205,2.17
GALR1 (galanin receptor 1),1,0.283,1.67
BRD4 (bromodomain containing 4),1,-0.42,1.45
ODF1 (outer dense fiber of sperm tails 1),1,0.357,1.33
ATP6V1F (ATPase H+ transporting V1 subunit F),1,-0.16,1.99
GPD1L (glycerol-3-phosphate dehydrogenase 1 like),1,-0.616,3.17
NUDT1 (nudix hydrolase 1),1,0.323,3.42
TXNDC5 (thioredoxin domain containing 5),1,0.682,1.46
ABCB1 (ATP binding cassette subfamily B member 1),1,0.371,2.26
SH3BGRL2 (SH3 domain binding glutamate rich protein like 2),1,0.426,1.4
DAP3 (death associated protein 3),1,0.457,1.21
UBE2E3 (ubiquitin conjugating enzyme E2 E3),1,0.301,2.31
GALK1 (galactokinase 1),1,0.104,3.76
PGAP6 (post-GPI attachment to proteins 6),1,-0.0256,2.58
MAPK8 (mitogen-activated protein kinase 8),1,0.114,1.91
MGP (matrix Gla protein),1,-0.427,2.87
KLK14 (kallikrein related peptidase 14),1,0.477,1.63
DHX8 (DEAH-box helicase 8),1,-0.0218,1.46
